In experiment [1] the target is T1, nuclear protein 1 (NUPR1) (human (293T cells)) (UniProt O60356).
T1 sequence: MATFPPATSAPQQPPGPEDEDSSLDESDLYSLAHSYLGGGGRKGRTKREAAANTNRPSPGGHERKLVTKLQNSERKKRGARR
The experiment is described as follows: co-IP; 293T cell lysate; COPB2 antibody (1-5 ug) with Protein A sepharose, 4 °C for 4 h, washed three times with 1x HNTG buffer, western blot for NUPR1; in turn NUPR1 antibody, blot for COPB2. For orientation: In western blotting, separated proteins are transferred to a membrane and probed.

The target of experiment [2] is T2, coatomer protein complex subunit beta 2 (COPB2) (human (293T cells)) (UniProt P35606).
T2 sequence: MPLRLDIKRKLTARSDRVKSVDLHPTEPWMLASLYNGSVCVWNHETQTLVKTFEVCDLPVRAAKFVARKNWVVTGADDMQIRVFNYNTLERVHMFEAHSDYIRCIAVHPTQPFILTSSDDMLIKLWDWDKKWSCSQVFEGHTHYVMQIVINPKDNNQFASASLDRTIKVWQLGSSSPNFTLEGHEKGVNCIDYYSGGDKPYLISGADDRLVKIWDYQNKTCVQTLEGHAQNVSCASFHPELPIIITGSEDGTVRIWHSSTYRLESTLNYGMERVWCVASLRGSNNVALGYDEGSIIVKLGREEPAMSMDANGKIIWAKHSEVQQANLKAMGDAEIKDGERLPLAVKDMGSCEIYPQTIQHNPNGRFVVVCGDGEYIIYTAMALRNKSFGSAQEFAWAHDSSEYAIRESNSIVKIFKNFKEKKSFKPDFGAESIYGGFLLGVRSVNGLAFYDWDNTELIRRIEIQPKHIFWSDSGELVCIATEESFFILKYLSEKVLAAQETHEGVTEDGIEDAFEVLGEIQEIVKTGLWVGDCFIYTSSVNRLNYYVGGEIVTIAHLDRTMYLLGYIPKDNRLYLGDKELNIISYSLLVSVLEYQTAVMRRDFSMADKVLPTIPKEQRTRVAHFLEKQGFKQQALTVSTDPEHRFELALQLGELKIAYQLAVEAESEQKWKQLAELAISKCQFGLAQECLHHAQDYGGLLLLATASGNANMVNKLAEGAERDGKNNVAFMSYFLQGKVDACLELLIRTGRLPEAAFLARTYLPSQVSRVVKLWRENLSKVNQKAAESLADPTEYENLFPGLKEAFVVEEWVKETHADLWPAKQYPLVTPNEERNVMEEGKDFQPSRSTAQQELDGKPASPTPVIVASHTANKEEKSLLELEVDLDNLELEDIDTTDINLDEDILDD
Described as above.

Results are given in words; binding and its absence hold for the method and conditions named. In cells and extracts the contact can be indirect. Some entries that bind do so weakly or less than the wild type.

B1: coatomer protein complex subunit beta 2 (COPB2) (protein, UniProt P35606-1 1-906)
chain: T2 sequence
With B1, in experiment [1], the binding result is on record as “binds”.

B2: nuclear protein 1 (NUPR1) (protein, UniProt O60356 1-82)
chain: T1 sequence
On to B2, for which the binding result in experiment [2] is recorded as “binds”.

Source of the values: publication PMC9120942.
